Article doi:10.1101/2025.01.15.633117
No constants are given. Whether binding was seen depends on the method and setting. In cells and extracts the contact can be indirect. Some binding calls cover weakened binding; strength is not graded here. For some of these results: Where a sequence is shown, tags or fusion partners need not be part of it. Values belong to the molecule of their own block, whether it stands above or below them.

Chains of the proteins cited; added tags and fusions are not shown. Residues count along the entry.
UniProt P29317, residues 24-976: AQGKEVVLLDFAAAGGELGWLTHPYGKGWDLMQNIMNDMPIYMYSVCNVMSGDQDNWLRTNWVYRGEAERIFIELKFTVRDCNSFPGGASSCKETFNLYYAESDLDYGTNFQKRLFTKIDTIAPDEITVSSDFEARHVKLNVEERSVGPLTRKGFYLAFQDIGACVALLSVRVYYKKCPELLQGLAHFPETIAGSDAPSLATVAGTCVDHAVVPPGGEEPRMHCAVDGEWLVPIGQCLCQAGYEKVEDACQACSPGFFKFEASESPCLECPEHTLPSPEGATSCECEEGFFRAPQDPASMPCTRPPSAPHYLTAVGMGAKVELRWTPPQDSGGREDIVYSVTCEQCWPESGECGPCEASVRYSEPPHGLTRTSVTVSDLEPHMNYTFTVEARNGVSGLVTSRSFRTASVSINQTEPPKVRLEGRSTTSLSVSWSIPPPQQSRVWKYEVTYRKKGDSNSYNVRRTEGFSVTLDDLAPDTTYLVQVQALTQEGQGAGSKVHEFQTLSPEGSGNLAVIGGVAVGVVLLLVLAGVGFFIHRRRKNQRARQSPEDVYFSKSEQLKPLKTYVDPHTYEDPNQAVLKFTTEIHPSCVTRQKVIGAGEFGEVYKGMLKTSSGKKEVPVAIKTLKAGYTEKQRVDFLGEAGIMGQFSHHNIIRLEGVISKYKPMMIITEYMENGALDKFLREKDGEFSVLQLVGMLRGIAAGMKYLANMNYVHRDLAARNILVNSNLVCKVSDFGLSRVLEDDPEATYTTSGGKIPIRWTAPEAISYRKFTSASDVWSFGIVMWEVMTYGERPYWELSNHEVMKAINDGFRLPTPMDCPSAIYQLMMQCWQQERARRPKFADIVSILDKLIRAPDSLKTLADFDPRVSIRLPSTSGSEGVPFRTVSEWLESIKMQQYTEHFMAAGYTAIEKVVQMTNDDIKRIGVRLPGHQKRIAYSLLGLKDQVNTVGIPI
UniProt Q01974, residues 34-943: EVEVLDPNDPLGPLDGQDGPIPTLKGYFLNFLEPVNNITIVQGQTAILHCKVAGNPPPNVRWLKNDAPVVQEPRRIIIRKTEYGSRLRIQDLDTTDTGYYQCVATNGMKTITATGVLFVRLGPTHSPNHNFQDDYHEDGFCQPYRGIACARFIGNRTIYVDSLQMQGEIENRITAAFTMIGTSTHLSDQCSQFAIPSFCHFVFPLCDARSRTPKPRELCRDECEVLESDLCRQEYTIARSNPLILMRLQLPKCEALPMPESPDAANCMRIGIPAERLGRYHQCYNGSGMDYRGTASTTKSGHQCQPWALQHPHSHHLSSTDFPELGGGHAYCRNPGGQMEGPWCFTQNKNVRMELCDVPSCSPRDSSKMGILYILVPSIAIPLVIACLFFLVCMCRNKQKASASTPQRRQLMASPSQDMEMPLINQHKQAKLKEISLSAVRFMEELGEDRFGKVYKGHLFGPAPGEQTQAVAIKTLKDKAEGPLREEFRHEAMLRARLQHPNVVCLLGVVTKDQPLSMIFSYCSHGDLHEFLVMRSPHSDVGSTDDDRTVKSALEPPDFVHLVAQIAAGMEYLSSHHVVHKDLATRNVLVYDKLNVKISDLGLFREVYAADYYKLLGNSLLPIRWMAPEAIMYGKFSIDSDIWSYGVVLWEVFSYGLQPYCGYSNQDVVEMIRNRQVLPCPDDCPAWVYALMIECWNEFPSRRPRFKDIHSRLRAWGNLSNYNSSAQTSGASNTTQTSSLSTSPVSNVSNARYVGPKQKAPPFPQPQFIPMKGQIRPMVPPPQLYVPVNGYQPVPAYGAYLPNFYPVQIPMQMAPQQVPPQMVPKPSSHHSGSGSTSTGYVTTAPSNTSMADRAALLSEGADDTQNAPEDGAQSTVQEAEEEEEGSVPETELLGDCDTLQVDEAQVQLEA

Tests used:
Assay in all cases: co-IP
[1] = target: T1, HA-tagged RAI14 (human) (UniProt Q9P0K7)
T1 sequence: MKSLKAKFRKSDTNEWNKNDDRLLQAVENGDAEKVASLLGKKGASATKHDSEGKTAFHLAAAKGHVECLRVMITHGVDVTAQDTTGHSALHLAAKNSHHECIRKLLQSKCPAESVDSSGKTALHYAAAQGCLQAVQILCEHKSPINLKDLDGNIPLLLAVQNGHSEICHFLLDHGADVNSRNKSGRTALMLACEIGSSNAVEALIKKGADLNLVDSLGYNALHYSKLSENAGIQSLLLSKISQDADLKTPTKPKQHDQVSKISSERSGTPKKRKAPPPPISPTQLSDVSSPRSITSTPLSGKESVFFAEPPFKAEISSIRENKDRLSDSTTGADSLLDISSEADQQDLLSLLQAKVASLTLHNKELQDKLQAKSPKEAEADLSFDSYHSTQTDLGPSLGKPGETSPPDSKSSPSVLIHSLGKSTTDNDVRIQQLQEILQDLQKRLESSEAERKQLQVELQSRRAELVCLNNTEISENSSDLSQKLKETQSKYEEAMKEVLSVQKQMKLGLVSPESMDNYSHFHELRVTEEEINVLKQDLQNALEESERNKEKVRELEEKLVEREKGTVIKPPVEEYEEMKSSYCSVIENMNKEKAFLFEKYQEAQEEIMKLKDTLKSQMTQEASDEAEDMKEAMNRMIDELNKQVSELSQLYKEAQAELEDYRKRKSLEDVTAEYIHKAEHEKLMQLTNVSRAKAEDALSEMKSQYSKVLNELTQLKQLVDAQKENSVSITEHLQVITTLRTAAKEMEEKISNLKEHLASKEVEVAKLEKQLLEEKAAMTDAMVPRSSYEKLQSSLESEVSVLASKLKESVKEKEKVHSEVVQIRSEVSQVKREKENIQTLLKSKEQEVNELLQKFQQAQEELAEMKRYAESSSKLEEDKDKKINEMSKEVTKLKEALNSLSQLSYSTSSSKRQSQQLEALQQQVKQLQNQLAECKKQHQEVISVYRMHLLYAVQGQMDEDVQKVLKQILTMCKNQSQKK

[2] = target: EPHA2-HA (human) (UniProt P29317)
[3] = target: T2, HA-tagged PHACTR4 (human) (UniProt Q8IZ21)
T2 sequence: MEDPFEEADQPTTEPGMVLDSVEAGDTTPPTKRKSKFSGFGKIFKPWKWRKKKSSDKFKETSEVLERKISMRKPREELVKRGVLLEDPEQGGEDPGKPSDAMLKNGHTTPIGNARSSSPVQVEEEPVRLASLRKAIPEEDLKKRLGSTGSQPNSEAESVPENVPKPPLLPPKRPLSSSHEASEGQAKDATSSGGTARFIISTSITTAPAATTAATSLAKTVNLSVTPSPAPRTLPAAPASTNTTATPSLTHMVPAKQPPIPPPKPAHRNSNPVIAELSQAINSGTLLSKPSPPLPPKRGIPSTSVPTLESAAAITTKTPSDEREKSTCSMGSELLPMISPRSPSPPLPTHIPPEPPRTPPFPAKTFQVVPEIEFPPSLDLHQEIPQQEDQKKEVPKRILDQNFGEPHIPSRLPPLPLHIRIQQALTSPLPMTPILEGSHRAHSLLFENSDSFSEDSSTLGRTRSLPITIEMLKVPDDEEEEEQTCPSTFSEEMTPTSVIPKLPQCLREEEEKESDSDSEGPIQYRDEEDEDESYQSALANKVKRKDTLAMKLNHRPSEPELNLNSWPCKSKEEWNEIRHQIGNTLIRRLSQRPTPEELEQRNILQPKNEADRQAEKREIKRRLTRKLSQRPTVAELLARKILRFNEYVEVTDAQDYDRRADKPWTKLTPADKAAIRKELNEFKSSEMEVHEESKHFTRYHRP

binding [1]: binds | binding [2]: binds | binding [3]: binds
Molecule: ROR2 (endogenous) (from UniProt Q01974 34-943) (receptor)

binding [1]: binds
B1: VANGL1 (protein, UniProt Q8TAA9 1-524)
chain: MDTESTYSGYSYYSSHSKKSHRQGERTRERHKSPRNKDGRGSEKSVTIQPPTGEPLLGNDSTRTEEVQDDNWGETTTAITGTSEHSISQEDIARISKDMEDSVGLDCKRYLGLTVASFLGLLVFLTPIAFILLPPILWRDELEPCGTICEGLFISMAFKLLILLIGTWALFFRKRRADMPRVFVFRALLLVLIFLFVVSYWLFYGVRILDSRDRNYQGIVQYAVSLVDALLFIHYLAIVLLELRQLQPMFTLQVVRSTDGESRFYSLGHLSIQRAALVVLENYYKDFTIYNPNLLTASKFRAAKHMAGLKVYNVDGPSNNATGQSRAMIAAAARRRDSSHNELYYEEAEHERRVKKRKARLVVAVEEAFIHIQRLQAEEQQKAPGEVMDPREAAQAIFPSMARALQKYLRITRQQNYHSMESILQHLAFCITNGMTPKAFLERYLSAGPTLQYDKDRWLSTQWRLVSDEAVTNGLRDGIVFVLKCLDFSLVVNVKKIPFIILSEEFIDPKSHKFVLRLQSETSV
